Measured values from the supplement of paper PMC10849652.
The other results are listed elsewhere or left out.

Sequences of proteins named here, by UniProt entry; tags and fusion partners are left off. A change or cut given only in a name is not applied to a line headed by its entry.
UniProt Q14137: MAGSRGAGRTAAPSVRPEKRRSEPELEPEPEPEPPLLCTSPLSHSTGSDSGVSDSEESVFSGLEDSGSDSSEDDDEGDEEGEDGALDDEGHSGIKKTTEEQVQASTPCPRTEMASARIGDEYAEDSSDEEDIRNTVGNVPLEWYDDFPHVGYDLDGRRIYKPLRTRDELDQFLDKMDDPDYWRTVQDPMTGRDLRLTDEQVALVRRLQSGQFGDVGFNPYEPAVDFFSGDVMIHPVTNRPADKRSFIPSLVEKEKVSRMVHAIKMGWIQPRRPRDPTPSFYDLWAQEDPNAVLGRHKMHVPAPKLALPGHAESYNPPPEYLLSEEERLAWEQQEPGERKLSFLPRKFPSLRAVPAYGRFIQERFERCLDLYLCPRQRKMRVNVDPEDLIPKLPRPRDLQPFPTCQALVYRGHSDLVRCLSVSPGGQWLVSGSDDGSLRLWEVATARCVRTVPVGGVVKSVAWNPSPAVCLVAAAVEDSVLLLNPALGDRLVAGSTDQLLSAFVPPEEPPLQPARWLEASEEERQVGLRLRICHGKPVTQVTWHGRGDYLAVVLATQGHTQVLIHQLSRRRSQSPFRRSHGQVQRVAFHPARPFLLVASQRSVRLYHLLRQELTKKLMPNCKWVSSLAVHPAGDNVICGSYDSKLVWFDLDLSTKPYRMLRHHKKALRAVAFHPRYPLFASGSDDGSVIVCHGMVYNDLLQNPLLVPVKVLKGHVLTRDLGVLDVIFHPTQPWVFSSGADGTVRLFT
UniProt Q6QNY1: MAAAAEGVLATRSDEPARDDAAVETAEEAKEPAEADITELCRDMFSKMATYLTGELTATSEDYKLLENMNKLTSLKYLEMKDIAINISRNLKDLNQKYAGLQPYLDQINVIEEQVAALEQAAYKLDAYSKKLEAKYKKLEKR
UniProt P78537: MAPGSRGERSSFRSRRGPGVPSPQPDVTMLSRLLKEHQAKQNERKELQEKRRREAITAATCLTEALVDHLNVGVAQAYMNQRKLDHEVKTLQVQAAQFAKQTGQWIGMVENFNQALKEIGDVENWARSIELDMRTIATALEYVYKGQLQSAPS
UniProt Q9UL15: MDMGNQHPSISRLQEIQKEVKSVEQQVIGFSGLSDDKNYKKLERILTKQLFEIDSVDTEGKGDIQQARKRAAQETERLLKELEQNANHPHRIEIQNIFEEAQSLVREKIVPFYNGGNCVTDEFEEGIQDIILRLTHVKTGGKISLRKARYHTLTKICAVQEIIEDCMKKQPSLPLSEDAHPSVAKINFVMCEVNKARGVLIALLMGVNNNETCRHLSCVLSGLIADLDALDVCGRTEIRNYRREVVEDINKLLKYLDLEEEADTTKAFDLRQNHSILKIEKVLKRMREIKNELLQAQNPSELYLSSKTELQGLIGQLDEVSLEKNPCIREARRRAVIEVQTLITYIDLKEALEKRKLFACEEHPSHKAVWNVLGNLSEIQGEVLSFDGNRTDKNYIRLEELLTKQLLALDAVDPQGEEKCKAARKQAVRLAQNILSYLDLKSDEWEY
UniProt O95429: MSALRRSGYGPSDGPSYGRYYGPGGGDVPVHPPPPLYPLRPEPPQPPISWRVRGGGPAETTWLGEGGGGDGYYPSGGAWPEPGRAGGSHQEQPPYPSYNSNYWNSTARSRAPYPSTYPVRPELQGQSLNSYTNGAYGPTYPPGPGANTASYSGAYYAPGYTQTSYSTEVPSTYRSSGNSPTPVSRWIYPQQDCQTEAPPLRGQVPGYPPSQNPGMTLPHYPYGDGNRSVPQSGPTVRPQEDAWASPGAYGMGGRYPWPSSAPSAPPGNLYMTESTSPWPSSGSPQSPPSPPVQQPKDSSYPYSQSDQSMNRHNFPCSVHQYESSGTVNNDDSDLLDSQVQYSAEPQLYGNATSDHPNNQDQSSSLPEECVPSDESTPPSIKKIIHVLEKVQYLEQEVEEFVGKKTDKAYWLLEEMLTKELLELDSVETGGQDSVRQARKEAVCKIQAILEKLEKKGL
UniProt Q16611: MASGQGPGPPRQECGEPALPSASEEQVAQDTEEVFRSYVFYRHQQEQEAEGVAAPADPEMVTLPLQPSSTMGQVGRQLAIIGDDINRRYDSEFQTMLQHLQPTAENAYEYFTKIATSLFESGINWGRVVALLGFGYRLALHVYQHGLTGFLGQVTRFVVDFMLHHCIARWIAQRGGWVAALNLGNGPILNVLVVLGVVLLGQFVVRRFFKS
UniProt O75531: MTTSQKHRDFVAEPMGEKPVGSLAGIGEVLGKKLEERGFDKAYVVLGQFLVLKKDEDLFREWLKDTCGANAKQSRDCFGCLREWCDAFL
UniProt Q8TDH9: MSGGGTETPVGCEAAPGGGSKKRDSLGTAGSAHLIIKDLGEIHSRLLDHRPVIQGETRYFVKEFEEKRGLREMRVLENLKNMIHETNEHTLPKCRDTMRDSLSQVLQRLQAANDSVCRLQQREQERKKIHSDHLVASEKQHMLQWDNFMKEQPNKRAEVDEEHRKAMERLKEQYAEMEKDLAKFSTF
UniProt P51572: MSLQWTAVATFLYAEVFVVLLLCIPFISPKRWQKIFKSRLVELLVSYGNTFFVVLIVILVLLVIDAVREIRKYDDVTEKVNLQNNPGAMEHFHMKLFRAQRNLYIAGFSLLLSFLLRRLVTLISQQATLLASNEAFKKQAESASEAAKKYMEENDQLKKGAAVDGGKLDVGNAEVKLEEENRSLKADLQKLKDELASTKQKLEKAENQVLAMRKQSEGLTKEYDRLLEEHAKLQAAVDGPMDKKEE
UniProt Q9NWV8, whole entry, looked up: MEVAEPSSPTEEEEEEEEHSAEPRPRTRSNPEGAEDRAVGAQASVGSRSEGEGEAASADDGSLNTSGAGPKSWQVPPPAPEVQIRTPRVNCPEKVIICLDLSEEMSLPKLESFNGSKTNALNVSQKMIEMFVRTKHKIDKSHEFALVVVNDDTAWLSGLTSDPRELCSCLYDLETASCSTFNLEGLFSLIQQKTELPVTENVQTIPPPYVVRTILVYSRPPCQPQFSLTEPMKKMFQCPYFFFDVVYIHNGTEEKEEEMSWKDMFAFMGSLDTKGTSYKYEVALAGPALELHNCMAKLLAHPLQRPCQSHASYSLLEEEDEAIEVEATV
UniProt Q8NFC6: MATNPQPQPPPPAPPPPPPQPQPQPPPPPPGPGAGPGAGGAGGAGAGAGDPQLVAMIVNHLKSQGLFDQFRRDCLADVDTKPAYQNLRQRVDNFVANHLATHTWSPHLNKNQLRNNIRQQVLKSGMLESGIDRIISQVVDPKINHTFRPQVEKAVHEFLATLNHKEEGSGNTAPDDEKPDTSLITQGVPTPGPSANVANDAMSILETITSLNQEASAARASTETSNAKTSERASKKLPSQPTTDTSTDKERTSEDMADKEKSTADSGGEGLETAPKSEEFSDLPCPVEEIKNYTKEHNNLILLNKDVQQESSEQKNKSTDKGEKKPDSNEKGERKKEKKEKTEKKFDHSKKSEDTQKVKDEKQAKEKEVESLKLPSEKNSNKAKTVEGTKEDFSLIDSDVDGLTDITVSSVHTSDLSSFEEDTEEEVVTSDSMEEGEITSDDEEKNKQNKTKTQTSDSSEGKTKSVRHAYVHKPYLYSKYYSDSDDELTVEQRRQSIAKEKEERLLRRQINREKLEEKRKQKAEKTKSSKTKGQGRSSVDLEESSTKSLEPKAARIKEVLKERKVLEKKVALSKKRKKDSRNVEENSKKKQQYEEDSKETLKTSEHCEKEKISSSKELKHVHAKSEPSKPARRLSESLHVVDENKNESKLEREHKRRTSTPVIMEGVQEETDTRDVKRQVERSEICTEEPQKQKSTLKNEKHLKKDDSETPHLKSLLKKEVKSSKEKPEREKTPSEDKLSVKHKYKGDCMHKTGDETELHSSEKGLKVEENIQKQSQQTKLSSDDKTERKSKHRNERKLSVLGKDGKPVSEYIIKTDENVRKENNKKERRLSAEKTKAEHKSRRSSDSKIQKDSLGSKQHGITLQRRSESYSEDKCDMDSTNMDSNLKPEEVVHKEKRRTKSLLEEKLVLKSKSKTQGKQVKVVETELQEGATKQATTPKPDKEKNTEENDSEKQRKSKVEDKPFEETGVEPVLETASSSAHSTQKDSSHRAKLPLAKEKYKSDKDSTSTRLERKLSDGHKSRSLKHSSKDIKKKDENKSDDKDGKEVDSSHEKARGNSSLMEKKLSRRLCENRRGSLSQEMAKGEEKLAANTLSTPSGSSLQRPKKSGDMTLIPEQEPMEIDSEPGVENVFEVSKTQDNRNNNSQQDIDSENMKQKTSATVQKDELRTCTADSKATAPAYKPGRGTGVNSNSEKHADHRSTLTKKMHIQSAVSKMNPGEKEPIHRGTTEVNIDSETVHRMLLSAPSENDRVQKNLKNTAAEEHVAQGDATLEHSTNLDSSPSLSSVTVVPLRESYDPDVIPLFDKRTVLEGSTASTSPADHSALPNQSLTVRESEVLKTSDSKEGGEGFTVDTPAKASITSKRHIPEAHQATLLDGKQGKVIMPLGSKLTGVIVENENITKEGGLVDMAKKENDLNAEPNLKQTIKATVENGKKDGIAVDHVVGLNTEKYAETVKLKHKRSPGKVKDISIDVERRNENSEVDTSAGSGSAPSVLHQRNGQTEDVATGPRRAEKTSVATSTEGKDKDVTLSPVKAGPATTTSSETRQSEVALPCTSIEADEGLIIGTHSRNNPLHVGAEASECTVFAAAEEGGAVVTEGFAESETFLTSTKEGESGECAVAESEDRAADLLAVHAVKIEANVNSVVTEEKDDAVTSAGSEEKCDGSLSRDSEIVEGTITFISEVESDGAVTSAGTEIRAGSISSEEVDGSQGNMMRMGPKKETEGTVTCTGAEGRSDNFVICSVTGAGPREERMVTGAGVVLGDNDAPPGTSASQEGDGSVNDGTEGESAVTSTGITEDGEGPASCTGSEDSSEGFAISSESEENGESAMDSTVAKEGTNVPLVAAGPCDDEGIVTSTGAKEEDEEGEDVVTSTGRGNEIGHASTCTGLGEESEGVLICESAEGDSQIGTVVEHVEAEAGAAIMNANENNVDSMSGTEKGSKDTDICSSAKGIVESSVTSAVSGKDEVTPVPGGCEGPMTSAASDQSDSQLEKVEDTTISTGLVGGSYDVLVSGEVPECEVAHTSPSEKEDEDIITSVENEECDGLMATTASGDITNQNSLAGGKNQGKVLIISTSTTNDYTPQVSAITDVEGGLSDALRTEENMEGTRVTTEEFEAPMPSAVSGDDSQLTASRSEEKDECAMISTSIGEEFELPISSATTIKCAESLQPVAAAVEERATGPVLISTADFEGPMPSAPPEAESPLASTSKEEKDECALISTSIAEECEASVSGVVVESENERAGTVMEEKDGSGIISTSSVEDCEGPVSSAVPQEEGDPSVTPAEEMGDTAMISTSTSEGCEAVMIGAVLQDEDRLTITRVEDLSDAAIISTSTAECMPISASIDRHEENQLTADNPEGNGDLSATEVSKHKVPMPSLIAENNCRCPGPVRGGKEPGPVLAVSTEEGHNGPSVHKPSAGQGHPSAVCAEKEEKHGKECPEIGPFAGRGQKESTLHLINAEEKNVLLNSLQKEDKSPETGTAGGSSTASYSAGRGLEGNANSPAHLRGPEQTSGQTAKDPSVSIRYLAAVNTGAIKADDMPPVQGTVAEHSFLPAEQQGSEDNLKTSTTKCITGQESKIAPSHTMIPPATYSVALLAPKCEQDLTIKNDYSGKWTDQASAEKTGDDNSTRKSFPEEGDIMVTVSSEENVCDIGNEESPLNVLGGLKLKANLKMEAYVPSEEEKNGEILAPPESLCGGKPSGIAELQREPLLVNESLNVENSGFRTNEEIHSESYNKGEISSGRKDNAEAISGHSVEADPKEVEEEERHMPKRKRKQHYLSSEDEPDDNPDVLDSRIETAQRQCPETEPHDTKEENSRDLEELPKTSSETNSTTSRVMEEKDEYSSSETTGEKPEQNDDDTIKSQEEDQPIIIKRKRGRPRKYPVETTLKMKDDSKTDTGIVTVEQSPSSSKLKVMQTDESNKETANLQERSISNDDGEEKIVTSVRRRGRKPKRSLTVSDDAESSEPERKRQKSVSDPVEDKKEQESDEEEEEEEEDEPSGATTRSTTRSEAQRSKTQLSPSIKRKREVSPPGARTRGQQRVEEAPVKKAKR
UniProt O15155: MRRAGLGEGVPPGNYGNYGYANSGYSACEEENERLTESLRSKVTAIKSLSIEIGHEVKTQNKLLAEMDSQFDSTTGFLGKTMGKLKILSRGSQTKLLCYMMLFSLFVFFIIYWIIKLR
UniProt Q5VW32: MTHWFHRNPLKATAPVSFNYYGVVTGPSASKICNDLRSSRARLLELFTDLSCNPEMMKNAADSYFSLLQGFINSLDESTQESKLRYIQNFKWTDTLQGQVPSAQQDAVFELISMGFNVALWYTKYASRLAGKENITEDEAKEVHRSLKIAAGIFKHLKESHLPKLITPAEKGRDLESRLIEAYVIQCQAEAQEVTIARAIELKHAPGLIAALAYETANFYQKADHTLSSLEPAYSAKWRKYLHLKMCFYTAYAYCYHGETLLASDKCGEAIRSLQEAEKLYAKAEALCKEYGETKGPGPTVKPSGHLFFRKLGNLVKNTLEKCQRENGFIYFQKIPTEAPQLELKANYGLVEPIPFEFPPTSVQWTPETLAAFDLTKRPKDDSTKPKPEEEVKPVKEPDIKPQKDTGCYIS

Assays:
Experiment in all cases: log2 fold change, soluble protein after heating vs DMSO (PISA); higher = thermal stabilisation; K562 cells, 10 uM, 30 min; active = over 0.2 and 3.5 SD of the protein, either way, in both replicates (recomputed)
[1] = compound: NC(=O)Nc1cc(-c2cccc(F)c2)sc1C(=O)N[C@H]1CCCNC1
How it was run: (§1)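 Thermal stability values are relative to control samples and come from duplicates. They are expressed as log2 fold changes. For measurement, K562 cells (2×10^6 cells/mL) received 10 μM compound for 30 min, and aliquots were heated for 3 min over 48°C-58°C, pooled, and extracted at 4°C in PBS with 0.5% NP-40. Soluble protein, the supernatant after 21,000xg for 90 min, was quantified by TMTpro 16plex LC-MS/MS with equalised channel sums.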

[2] = compound: NC(=O)c1cnc(N[C@@H]2CCCC[C@@H]2N)nc1Nc1cccc(-n2nccn2)c1
How it was run: as §1

[3] = compound: NC1(c2ccc(-c3nc4ccn5c(=O)[nH]nc5c4cc3-c3ccccc3)cc2)CCC1
How it was run: as §1

[4] = compound: NCC(=O)Nc1ccc(-n2nc(C(F)(F)F)cc2-c2ccc3c(ccc4ccccc43)c2)cc1
How it was run: as §1

[5] = compound: Nc1ccccc1NC(=O)c1ccc(CNC(=O)OCc2cccnc2)cc1 [entinostat]
How it was run: as §1

[6] = compound: O=C(CCCCCCC(=O)Nc1ccccc1)NO [vorinostat]
How it was run: as §1

[7] = compound: O=C(CCCCCCNC(=O)c1cnc(N(c2ccccc2)c2ccccc2Cl)nc1)NO [citarinostat]
How it was run: as §1

[8] = compound: O=C(O)c1ccc2c(c1)nc(Nc1cccc(Cl)c1)c1ccncc12 [silmitasertib]
How it was run: as §1

[9] = compound: O=C1NC(=O)C(c2cnc3ccccn23)=C1c1cn2c3c(cc(F)cc13)CN(C(=O)N1CCCCC1)CC2
How it was run: as §1

[10] = compound: c1cc(OCCN2CCCCC2)cc(-c2n[nH]c3ccc(-c4nnc[nH]4)cc23)c1
How it was run: as §1

[11] = compound: c1cn2cc(-c3ccc4cn[nH]c4c3)nc(Nc3ccc(N4CCOCC4)cc3)c2n1 [entospletinib]
How it was run: as §1

Target | log2 fold change [1] | log2 fold change [2] | log2 fold change [3] | log2 fold change [4] | log2 fold change [5] | log2 fold change [6] | log2 fold change [7] | log2 fold change [8] | log2 fold change [9] | log2 fold change [10] | log2 fold change [11]
BAD (UniProt Q92934) | inactive: -0.243 | inactive: 0.033 | inactive: 0.101 | inactive: -0.018 | inactive: -0.122 | inactive: 0.011 | inactive: -0.064 | inactive: -0.071 | inactive: 0.131 | inactive: -0.072 | –
BOP1 (UniProt Q14137) | inactive: 0.002 | inactive: -0.027 | inactive: 0.04 | inactive: -0.018 | inactive: -0.004 | inactive: 0.107 | inactive: 0.035 | inactive: 0.038 | active: -0.351 | inactive: -0.073 | –
BAIAP2 (UniProt Q9UQB8) | active: -0.229 | inactive: -0.083 | inactive: -0.086 | inactive: -0.014 | inactive: 0.019 | inactive: 0.082 | inactive: 0.031 | inactive: -0.016 | inactive: 0.04 | inactive: -0.034 | –
BLOC1S2 (UniProt Q6QNY1) | inactive: -0.033 | inactive: -0.052 | inactive: -0.043 | inactive: 0.049 | inactive: -0.041 | inactive: -0.001 | inactive: 0.17 | inactive: 0.067 | inactive: -0.086 | inactive: -0.018 | inactive: -0.066
BLOC1S1 (UniProt P78537) | inactive: 0.112 | inactive: -0.008 | inactive: -0.049 | inactive: -0.039 | inactive: -0.022 | inactive: -0.195 | inactive: -0.018 | inactive: -0.044 | inactive: -0.047 | inactive: 0.063 | inactive: 0.012
ATXN7L3B (UniProt Q96GX2) | inactive: 0.008 | inactive: -0.002 | inactive: 0.018 | inactive: -0.016 | inactive: -0.007 | inactive: 0.008 | inactive: 0.036 | inactive: 0.013 | inactive: -0.168 | inactive: -0.014 | inactive: -0.019
AVL9 (UniProt Q8NBF6) | inactive: 0.006 | inactive: -0.128 | inactive: -0.228 | inactive: -0.039 | inactive: 0.003 | inactive: 0.064 | inactive: 0.086 | inactive: -0.019 | inactive: -0.007 | inactive: -0.104 | inactive: 0.01
BAG5 isoform 2 (UniProt Q9UL15) | inactive: 0.059 | inactive: -0.036 | inactive: -0.214 | inactive: 0.03 | inactive: 0.063 | inactive: 0.09 | inactive: 0.145 | inactive: 0.011 | inactive: 0.004 | inactive: -0.097 | inactive: 0.014
BAG4 (UniProt O95429) | inactive: 0.016 | inactive: -0.02 | inactive: -0.039 | inactive: -0.017 | inactive: -0.009 | inactive: 0.049 | inactive: 0.019 | inactive: -0.011 | inactive: -0.019 | inactive: -0.071 | inactive: 0.042
BAG3 (UniProt O95817) | inactive: -0.016 | inactive: -0.013 | inactive: -0.019 | inactive: -0.007 | inactive: -0.003 | inactive: -0.102 | inactive: -0.021 | inactive: 0.008 | inactive: -0.079 | inactive: 0.01 | inactive: 0.042
BNIP1 (UniProt Q12981) | inactive: -0.014 | inactive: -0.111 | inactive: -0.043 | inactive: -0.06 | inactive: 0.004 | inactive: 0.047 | inactive: 0.019 | inactive: 0.015 | inactive: -0.03 | inactive: -0.026 | inactive: -0.019
BAK1 (UniProt Q16611) | inactive: 0.044 | inactive: 0.042 | inactive: -0.031 | inactive: -0.033 | inactive: -0.026 | inactive: -0.122 | inactive: -0.024 | inactive: 0.008 | inactive: -0.002 | inactive: -0.019 | inactive: 0.043
BSDC1 (UniProt Q9NW68) | inactive: 0.024 | inactive: -0.046 | inactive: -0.084 | inactive: 0.003 | inactive: -0.036 | inactive: 0.002 | inactive: 0.055 | inactive: 0.033 | inactive: -0.048 | inactive: -0.044 | inactive: 0.025
BPGM (UniProt P07738) | inactive: -0.008 | inactive: 0.018 | inactive: 0.029 | inactive: 0.053 | inactive: -0.045 | inactive: -0.007 | inactive: 0.034 | inactive: -0.016 | inactive: -0.01 | inactive: -0.001 | inactive: -0.053
BIRC2 (UniProt Q13490) | inactive: -0.048 | inactive: -0.07 | inactive: -0.042 | inactive: -0.066 | inactive: -0.044 | inactive: 0.075 | inactive: 0.019 | inactive: -0.041 | inactive: -0.044 | inactive: -0.07 | inactive: -0.006
BANF1 (UniProt O75531) | inactive: -0.089 | inactive: 0.069 | inactive: 0.109 | inactive: -0.069 | inactive: -0.123 | inactive: -0.156 | inactive: 0.002 | inactive: 0.007 | inactive: -0.151 | inactive: 0.006 | inactive: 0.016
BAIAP2L1 (UniProt Q9UHR4) | inactive: -0.062 | inactive: -0.006 | inactive: -0.021 | inactive: 0.012 | inactive: -0.014 | inactive: 0.024 | inactive: 0.021 | inactive: 0.002 | inactive: -0.018 | inactive: -0.02 | inactive: 0.022
B2M (UniProt P61769) | inactive: -0.024 | inactive: -0.091 | inactive: 0.025 | inactive: 0.083 | inactive: -0.021 | inactive: -0.028 | inactive: 0.036 | inactive: -0.01 | inactive: -0.098 | inactive: -0.2 | inactive: 0.008
BLOC1S5 (UniProt Q8TDH9) | inactive: 0.01 | inactive: 0.031 | inactive: -0.017 | inactive: -0.01 | inactive: -0.054 | inactive: -0.022 | inactive: 0.032 | inactive: -0.013 | inactive: -0.014 | inactive: -0.067 | inactive: 0.003
BCAP31 isoform 2 (UniProt P51572) | inactive: 0.048 | inactive: -0.006 | inactive: 0.013 | inactive: -0.005 | inactive: 0.002 | inactive: -0.028 | inactive: -0.021 | inactive: -0.032 | inactive: -0.029 | inactive: -0.012 | inactive: -0.007
BABAM1 (UniProt Q9NWV8) | inactive: 0.032 | inactive: 0.032 | inactive: 0.021 | inactive: 0.042 | inactive: -0.035 | inactive: -0.015 | inactive: -0.019 | inactive: 0.047 | inactive: 0.004 | inactive: -0.022 | inactive: -0.015
BOD1L1 (UniProt Q8NFC6) | inactive: 0.023 | inactive: -0.019 | inactive: 0.065 | inactive: 0.04 | inactive: -0.054 | inactive: 0.011 | inactive: -0.019 | inactive: -0.009 | inactive: 0.037 | inactive: -0.121 | inactive: -0.006
BPNT1 (UniProt O95861) | inactive: -0.017 | inactive: 0.004 | inactive: 0.007 | inactive: -0.016 | inactive: -0.011 | inactive: -0.023 | inactive: 0.003 | inactive: -0.032 | inactive: -0.046 | inactive: -0.01 | inactive: 0.064
BRCC3 (UniProt P46736) | inactive: 0.03 | inactive: -0.028 | inactive: -0.013 | inactive: 0.003 | inactive: -0.057 | inactive: -0.036 | inactive: -0.004 | inactive: -0.014 | inactive: 0.037 | inactive: -0.058 | inactive: -0.036
ATXN2L (UniProt Q8WWM7) | inactive: 0.035 | inactive: -0.008 | inactive: -0.01 | inactive: -0.041 | inactive: 0.011 | inactive: 0.004 | inactive: 0.011 | inactive: -0.004 | inactive: 0.017 | inactive: -0.074 | inactive: 0.022
BET1 (UniProt O15155) | inactive: -0.014 | inactive: -0.117 | inactive: -0.02 | inactive: -0.038 | inactive: 0.066 | inactive: 0.027 | inactive: 0.028 | inactive: 0 | inactive: -0.104 | inactive: -0.084 | inactive: 0.025
BROX (UniProt Q5VW32) | inactive: -0.021 | inactive: -0.073 | inactive: -0.086 | inactive: -0.044 | inactive: 0.071 | inactive: -0.021 | inactive: 0.061 | inactive: 0.068 | inactive: 0.024 | inactive: -0.01 | inactive: -0.003
B4GALT7 (UniProt Q9UBV7) | inactive: 0.042 | inactive: 0.117 | inactive: -0.029 | inactive: -0.013 | inactive: -0.03 | inactive: -0.036 | inactive: 0.022 | inactive: -0.044 | inactive: 0.056 | inactive: -0.052 | inactive: -0.005

Given as comma-separated lines: entries from further up
Target,log2 fold change [1],log2 fold change [2],log2 fold change [3],log2 fold change [4],log2 fold change [5],log2 fold change [6],log2 fold change [7],log2 fold change [8],log2 fold change [9],log2 fold change [10],log2 fold change [11]
BAIAP2L1 (UniProt Q9UHR4),inactive: -0.062,inactive: -0.006,inactive: -0.021,inactive: 0.012,inactive: -0.014,inactive: 0.024,inactive: 0.021,inactive: 0.002,inactive: -0.018,inactive: -0.02,inactive: 0.022
B2M (UniProt P61769),inactive: -0.024,inactive: -0.091,inactive: 0.025,inactive: 0.083,inactive: -0.021,inactive: -0.028,inactive: 0.036,inactive: -0.01,inactive: -0.098,inactive: -0.2,inactive: 0.008
